The target of the assay is T1, farnesyl protein transferase (FPT) (Rattus norvegicus, UniProt Q02293+Q04631).
T1 construct: were partially purified from rat brain by ammonium sulfate fractionation followed by Q-Sepharose; from tissue; host or cells: rat brain
The experiment in a line: In vitro enzyme assay: inhibition of farnesyl protein transferase. Format: biochemical. The procedure: 1. In vitro enzyme assays: Inhibition of farnesyl protein transferase and geranylgeranyl protein transferase.
Human farnesyl protein transferase was also expressed in E. coli, using cDNA clones encoding both the α and β subunits. […] Two forms of val^12-Ha-Ras protein were prepared as substrates for these enzymes, differing in their carboxy terminal sequence. One form terminated in cysteine-valine-leucine-serine (Ras-CVLS) the other in cystein-valine-leucine-leucine (Ras-CVLL). Ras-CVLS is a substrate for the farnesyl protein transferase while Ras-CVLL is a substrate for geranylgeranyl protein transferase I. The cDNAs encoding these proteins were constructed so that the proteins contain an amino-terminal extension of 6 histidine residues. Both proteins were expressed in Escherichia coli and purified using metal chelate affinity chromatography. The radiolabelled isoprenyl pyrophosphate substrates, [^3H]farnesyl pyrophosphate and [^3H]geranylgeranyl pyrophosphate, were purchased from DuPont/New England Nuclear.
The reaction was allowed to proceed for 30 minutes at room temperature and then stopped with 0.5 ml of 4% sodium dodecyl sulfate (SDS) followed by 0.5 ml of cold 30% trichloracetic acid (TCA). […] Percent inhibition was calculated relative to the DMSO vehicle control.

The chains behind the UniProt entries cited, without tags or fusion partners.
UniProt Q02293, whole entry: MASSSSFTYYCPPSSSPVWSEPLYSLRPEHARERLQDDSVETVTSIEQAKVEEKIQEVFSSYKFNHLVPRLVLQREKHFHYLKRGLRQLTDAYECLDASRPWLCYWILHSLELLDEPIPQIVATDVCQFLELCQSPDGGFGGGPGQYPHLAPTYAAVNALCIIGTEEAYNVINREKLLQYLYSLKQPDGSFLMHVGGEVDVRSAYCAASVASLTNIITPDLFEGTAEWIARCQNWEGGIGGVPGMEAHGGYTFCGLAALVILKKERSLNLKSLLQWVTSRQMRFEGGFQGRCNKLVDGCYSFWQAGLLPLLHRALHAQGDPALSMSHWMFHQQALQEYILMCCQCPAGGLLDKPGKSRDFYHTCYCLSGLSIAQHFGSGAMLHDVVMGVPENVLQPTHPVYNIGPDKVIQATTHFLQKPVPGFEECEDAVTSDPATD

Among the data in US6492381B1, “Tricyclic carbamate compounds useful for inhibition of G-protein function and for treatment of proliferative diseases” (Schering Corp., priority 1993, dated 2002) are IC50 values, retold here.

The molecule `O=C(Sc1ccccc1)N1CCC(=C2c3ccc(Cl)cc3CCc3cccnc32)CC1` [Compound 595.00, 4-(8-chloro-5,6-dihydro-11H-benzo[5,6]cyclohepta[1,2-b]-pyridin-11ylidene)-1-piperinecarbothioic Acid, S-phenyl Ester] returned a half-maximal inhibitory concentration (IC50) of 240 nM.

The term IC50 denotes the midpoint of a concentration-inhibition curve. A high value points to weaker potency in that assay.
